Some of the results follow. Plates or batches differ in their baseline, so values are only roughly comparable.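 Hits were defined as a z-score below −3.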 Residues, ends and D or L forms follow the SMILES beside them. *: point of attachment. For = O=C*

This experiment concerns the target T1, YTHDF1 YTH domain (aa 365-554) (UniProt Q9BYJ9).
T1 sequence (whole entry): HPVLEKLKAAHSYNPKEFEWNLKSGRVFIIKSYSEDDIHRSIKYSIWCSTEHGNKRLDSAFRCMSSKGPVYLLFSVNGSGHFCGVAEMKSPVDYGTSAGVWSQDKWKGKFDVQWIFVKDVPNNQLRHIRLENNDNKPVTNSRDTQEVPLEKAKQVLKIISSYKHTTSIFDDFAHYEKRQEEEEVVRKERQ
Put plainly: tryptophan fluorescence intensity z-score (mean); higher = higher fluorescence, less quenching (negative = binding / quenching). To be noted: 10 µM.
`CC(=O)Oc1ccc(C(c2ccc(OC(C)=O)cc2)c2ccccn2)cc1` (plate: M 1-2): the “tryptophan fluorescence intensity z-score” value was inactive: 0.691.
In the case of `CCCCS(=N)(=O)CCC(N)C(=O)O` (stereo not drawn) (plate: M 23-24) it was inactive: 0.253.
The value for `CC(=O)O[C@@H]1CC2C(C)(C)[C@H](O)CC[C@]2(C)C2CC[C@@]3(C)[C@H](c4ccoc4)OC(=O)C4OC43[C@@]21C` (stereo partly drawn) [alpha-DIHYDROGEDUNOL] (plate: M 21-22) was inactive: 0.14; that for `CCC(C)(C)C(=O)O[C@H]1C[C@@H](C)C=C2C=C[C@H](C)[C@H](CC[C@@H]3C[C@@H](O)CC(=O)O3)[C@H]21` (plate: M 9-10) was inactive: -0.436; that for `COc1ccc(C(C)=O)c(OC)c1` (plate: M 21-22) was inactive: 0.218.
In the case of `CC(NCCc1ccc(O)cc1)C(O)c1ccc(O)cc1` (stereo not drawn) (plate: M 7-8) it was inactive: 0.434; in that of `CCC1(C)CC(=O)NC1=O` (stereo not drawn) (plate: M 7-8), inactive: 0.571; in that of `C=C[C@@]1(C)CC(=O)[C@@]2(O)[C@](C)(O1)[C@@H](O)[C@@H](O)C1C(C)(C)CC[C@H](O)[C@@]12C` (stereo partly drawn) (plate: M 19-20), inactive: 0.66.
Consider `Cc1cc2nc3c(=O)[nH]c(=O)nc-3n(C[C@H](O)[C@H](O)[C@H](O)CO)c2cc1C` (plate: M 9-10), for which the “tryptophan fluorescence intensity z-score” value is inactive: -0.363.
In the case of `CC(=O)O[C@@H]1C[C@H]2C(C)(C)C(=O)C=C[C@]2(C)[C@H]2CC[C@@]3(C)[C@H](c4ccoc4)OC(=O)[C@H]4O[C@]43[C@@]21C` (plate: M 13-14) it was inactive: 0.142.
With `CSCC[C@H](NC=O)C(=O)N[C@@H](Cc1ccccc1)C(=O)O` (plate: M 23-24) (For-Met-Phe-OH), the “tryptophan fluorescence intensity z-score” value is inactive: 0.698.
`O=C1NCC2(CCN(CCc3ccccc3)CC2)O1` (plate: M 7-8): the “tryptophan fluorescence intensity z-score” value was inactive: 0.519.
On to `Clc1ccc2c(c1)CCc1cccnc1C2=C1CCNCC1` (plate: M 11-12), for which the “tryptophan fluorescence intensity z-score” value was inactive: 0.188.
The value for `COc1cc(C)c(C(=O)Oc2cc(C)c(C(=O)O)c(O)c2C)c(OC)c1C` (plate: M 19-20) was inactive: 0.474; that for `CN(C)CCOC(c1ccccc1)c1ccccc1.Cn1c(=O)c2[nH]c(Cl)nc2n(C)c1=O` (plate: M 1-2) was inactive: 0.233; that for `C[C@@H]1CC[C@@]23CCC4(C)[C@@](C=CC5[C@@]6(C)CC[C@H](O)C(C)(C)C6CC[C@]54C)(OC2=O)C3[C@H]1C` (stereo partly drawn) (plate: M 17-18) was inactive: 0.443.
Regarding `CC(=O)[C@@]1(O)CC[C@H]2[C@@H]3CCC4=CC(=O)CC[C@]4(C)[C@H]3CC[C@@]21C` (plate: M 21-22), the “tryptophan fluorescence intensity z-score” value was inactive: 0.226.
The value for `CCN(CC)C(=O)c1ccc(O)c(OC)c1` (plate: M 13-14) was inactive: 0.28.
In the case of `NC1(C(=O)O)CC1` (plate: M 21-22) it was inactive: 0.0633; in that of `C[C@H]1[C@H](C)CC[C@]2(C(=O)O)CC[C@]3(C)C(=CC[C@@H]4[C@@]5(C)CC[C@H](O)C(C)(C)[C@@H]5CC[C@]43C)[C@H]12` (plate: M 21-22), inactive: 0.477; in that of `CCCCCCCCCCCCCCCC(=O)OC[C@H](O)[C@H]1OC(=O)C(O)=C1O` (plate: M 13-14), inactive: 0.322.
The value for `CC1CC2C3CCC4=CC(=O)C=CC4(C)C3(F)C(O)CC2(C)C1C(=O)CO` (stereo not drawn) (plate: M 11-12) was inactive: -0.33; that for `CC=CC(=O)N(CC)c1ccccc1C` (plate: M 9-10) was inactive: 0.0282; that for `CNCCc1ccccn1` (plate: M 5-6) was inactive: -0.19.
Take `NCCCCCC(=O)O` (plate: M 1-2): the “tryptophan fluorescence intensity z-score” value is inactive: -0.168.
The value for `CN(C)C(=N)NC(=N)N` (plate: M 11-12) was inactive: -0.584; that for `CC(=O)OC/C=C(\C)CC/C=C(\C)CC/C=C(\C)CC/C=C(\C)CC/C=C(\C)CC/C=C(\C)CC/C=C(\C)CC/C=C(\C)CCC=C(C)C` (plate: M 19-20) was inactive: 0.27; that for `CC(=O)O[C@]1(C(C)=O)CC[C@H]2[C@@H]3C=C(Cl)C4=CC(=O)CC[C@]4(C)[C@H]3CC[C@@]21C` (plate: M 9-10) was inactive: -0.63.
As to `CCN(CC)C(C)CN1c2ccccc2Sc2ccccc21` (stereo not drawn) (plate: M 3-4), the “tryptophan fluorescence intensity z-score” value is inactive: -0.46.
In the case of `CCCNC(=O)NS(=O)(=O)c1ccc(Cl)cc1` (plate: M 1-2) it was inactive: 0.175; in that of `CC1(C)CC2C1CC[C@]1(C)CCC3C(C(=O)O)CC(=O)O[C@@]32C1` (stereo partly drawn) [3-HYDROXY-4-(SUCCIN-2-YL)-CARYOLANEdelta-LACTONE] (plate: M 17-18), inactive: 0.269.
The value for `CO[C@H]1/C=C/O[C@@]2(C)Oc3c(C)c(O)c4c(O)c(c5c(nc6cc(C)ccn65)c4c3C2=O)NC(=O)/C(C)=C\C=C\[C@H](C)[C@H](O)[C@@H](C)[C@@H](O)[C@@H](C)[C@H](OC(C)=O)[C@@H]1C` (plate: M 9-10) was inactive: -0.812; that for `Clc1cccc(Cl)c1NC1=NCCN1` (plate: M 1-2) was inactive: 0.352; that for `N=C(N)NCCCCNC(=N)N` (plate: M 21-22) was inactive: 0.471.
In the case of `COC(=O)Nc1nc2cc(Sc3ccccc3)ccc2[nH]1` (plate: M 7-8) it was inactive: 0.0463.
Turning to `CN1CCN(CC(=O)N2c3ccccc3C(=O)Nc3cccnc32)CC1` (plate: M 7-8), the “tryptophan fluorescence intensity z-score” value is inactive: 0.218.
In the case of `Oc1cc2c(cc1O)C(c1ccccc1)CNCC2` (stereo not drawn) (plate: M 23-24) it was inactive: 0.364; in that of `CC(C)NCC(O)COc1ccc(CC(N)=O)cc1` (stereo not drawn) (plate: M 7-8), inactive: 0.528; in that of `NC(Cn1ccc(=O)c(O)c1)C(=O)O` (stereo not drawn) (plate: M 17-18), inactive: 0.879.
In the case of `CCC1(c2ccccc2)C(=O)NCNC1=O` (plate: M 5-6) it was inactive: 0.401; in that of `N#Cc1ccc2c(c1)N(CCCN1CCC(O)CC1)c1ccccc1S2` (plate: M 21-22), inactive: 0.112.
In the case of `CN(C)CCC(c1ccc(Br)cc1)c1ccccn1` (stereo not drawn) (plate: M 9-10) it was inactive: -0.482.
With `c1ccc(-c2ccc(C(c3ccccc3)n3ccnc3)cc2)cc1` (stereo not drawn) (plate: M 9-10), the “tryptophan fluorescence intensity z-score” value was inactive: -0.112.

The record behind these values is the supplement of paper PMC9578143, “Small-Molecule Ebselen Binds to YTHDF Proteins Interfering with the Recognition of N^6-Methyladenosine-Modified RNAs” (ACS Pharmacology & Translational Science, 2022).
